For at least one compound, name, drawing or mass did not settle the structure. Some entries share one result that the patent states for a list of compounds. Residues, ends and D or L forms follow the SMILES beside them. *: point of attachment. X1 = COC(=O)C[C@H](N*)C(=O)COc1c(F)cccc1F; Quinaldoyl = O=C(c1ccc2ccccc2n1)*
Legend:
[1] = test system: neonatal ischemic brain injury in 7 day-old rats; settings: rat pups, i.p. 5 min before the ischemic onset
primary cortical neurons = type: cell-based; settings: SD model; compound added at the start of SD at the concentration of column '[ ], μM' (first concentration/target where two are printed)

| Structure (SMILES) | mortality rate during ischemia or before killing [1] [%] | Survival (primary cortical neurons) |
| --- | --- | --- |
| COC(=O)C[C@H](NC(=O)[C@H](C)NC(=O)[C@@H](NC(=O)[C@H](CC(=O)OC)NC(=O)[C@@H](NC(=O)c1ccc2ccccc2n1)C(C)C)C(C)C)C(=O)COc1c(F)cccc1F [Q-VDVAD-OPH, Quinolinylcarnonyl-L-Valinyl-L-Aspartyl (methyl ester)-X-Vanilyl-L-Alaninyl-L-Aspartyl (methyl ester) 2,6-difluorophenyl ester] (Quinaldoyl-VD(OMe)VA-X1) | < 4 | – |
| COC[C@H]1OC(=O)c2coc3c2[C@@]1(C)C1=C(C3=O)[C@@H]2CCC(=O)[C@@]2(C)C[C@H]1OC(C)=O [Wormannin] | – | No |
